Results published in patent US11083198B2, “4H-pyrrolopyridine compound or salt thereof, agricultural and horticultural insecticide comprising the compound or the salt, and method for using the insecticide” (Nihon Nohyaku Co., Ltd., priority 2016, dated 2021).
Some entries share one result that the patent states for a list of compounds.

How the values were obtained:
Format in all cases: in vivo
[1] = test system: Myzus persicae; test: Test for Control Efficacy on Myzus persicae; conditions: 500 ppm, foliar application to potted Chinese cabbage plants, 6 days after the foliar application
[2] = test system: Plutella xylostella; test: Insecticidal Test on Plutella xylostella; conditions: 500 ppm, Chinese cabbage seedlings with laid eggs dipped for about 30 seconds, 25° C., 6 days after the dip treatment
Excerpt: Insecticidal Test on Plutella xylostella
Adults of Plutella xylostella were released onto Chinese cabbage seedlings and allowed to lay eggs thereon. At 2 days after the release of the adults, the Chinese cabbage seedlings with laid eggs were dipped for about 30 seconds in agrochemical dispersions diluted to 500 ppm, each of which contained a different condensed heterocyclic compound represented by the general formula (1) of the present invention as an active ingredient. After air-dried, the seedlings were kept in a thermostatic chamber at 25° C. At 6 days after the dip treatment, the number of hatched larvae per plot was counted, the mortality rate was calculated according to the formula shown below, and the insecticidal efficacy was evaluated according to the criteria of Test Example 2. This test was conducted in triplicate using 10 adults of Plutella xylostella per plot. Corrected mortality rate(%)=100×(Number of hatched larvae in a non-treatment plot−Number of hatched larvae in a treatment plot)/Number of hatched larvae in a non-treatment plot [Math. 3]

[3] = test system: Laodelphax striatellus; test: Insecticidal Test on Laodelphax striatellus; conditions: 500 ppm, rice plant seedlings dipped for 30 seconds, 3rd-instar larvae, 8 days after the inoculation
Excerpt: Insecticidal Test on Laodelphax striatellus
The condensed heterocyclic compounds represented by the general formula (1) of the present invention or salts thereof were separately dispersed in water and diluted to 500 ppm. Rice plant seedlings (variety: Nihonbare) were dipped in the agrochemical dispersions for 30 seconds. After air-dried, each seedling was put into a separate glass test tube and inoculated with ten 3rd-instar larvae of Laodelphax striatellus, and then the glass test tubes were capped with cotton plugs. At 8 days after the inoculation, the numbers of surviving larvae and dead larvae were counted, the corrected mortality rate was calculated according to the formula shown below, and the insecticidal efficacy was evaluated according to the criteria shown below. Corrected mortality rate(%)=100×(Survival rate in a non-treatment plot−Survival rate in a treatment plot)/Survival rate in a non-treatment plot [Math. 2] Corrected Mortality Rate A: the corrected mortality rate is 100%. B: the corrected mortality rate is 90 to 99%. C: the corrected mortality rate is 80 to 89%. D: the corrected mortality rate is 50 to 79%.

| SMILES | control efficacy (control rate) [1] | insecticidal efficacy (corrected mortality rate) [2] | insecticidal efficacy (corrected mortality rate) [3] |
| --- | --- | --- | --- |
| CCn1cc(C(F)(F)F)cc2nc(-c3ncc(-c4cccc(C#N)c4)cc3S(=O)(=O)CC)c(Cl)c1-2 [Compound 1-33] | A (the control rate is 100%) | A (the corrected mortality rate is 100%) | A (the corrected mortality rate is 100%) |
| CCn1cc(C(F)(F)F)cc2nc(-c3ncc(-c4cccc(C#N)c4)cc3S(=O)(=O)CC)c(C#N)c1-2 [Compound 1-74] | A (the control rate is 100%) | A (the corrected mortality rate is 100%) | A (the corrected mortality rate is 100%) |
| CCn1cc(C(F)(F)F)cc2nc(-c3ncc(-c4ccc(F)cc4)cc3S(=O)(=O)CC)c(Cl)c1-2 [Compound 1-22] | A (the control rate is 100%) | A (the corrected mortality rate is 100%) | A (the corrected mortality rate is 100%) |
| CCS(=O)(=O)c1cc(I)cnc1-c1nc2cc(C(F)(F)F)cn(C)c-2c1Cl [Compound 1-1] | A (the control rate is 100%) | A (the corrected mortality rate is 100%) | A (the corrected mortality rate is 100%) |
| CCS(=O)(=O)c1cc(-c2ccc(Cl)c(F)c2)cnc1-c1nc2cc(C(F)(F)F)cn(C)c-2c1Cl [Compound 1-45] | A (the control rate is 100%) | A (the corrected mortality rate is 100%) | A (the corrected mortality rate is 100%) |
| CCS(=O)(=O)c1cc(-c2ccc(F)cc2)cnc1-c1nc2cc(C(F)(F)F)cn(C)c-2c1C [Compound 1-27] | A (the control rate is 100%) | A (the corrected mortality rate is 100%) | A (the corrected mortality rate is 100%) |
| CCS(=O)(=O)c1cc(-c2ccc(F)cc2)cnc1-c1nc2cc(C(F)(F)F)cn(C)c-2c1Cl [Compound 1-21] | A (the control rate is 100%) | A (the corrected mortality rate is 100%) | A (the corrected mortality rate is 100%) |
| CCS(=O)(=O)c1cc(I)cnc1-c1cc2n(C)cc(C(F)(F)F)cc-2n1 [Compound 1-3] | A (the control rate is 100%) | A (the corrected mortality rate is 100%) | A (the corrected mortality rate is 100%) |
| CCS(=O)(=O)c1cc(-c2cccc(C(F)(F)F)c2)cnc1-c1nc2cc(C(F)(F)F)cn(CC(F)F)c-2c1F [Compound 1-79] | A (the control rate is 100%) | A (the corrected mortality rate is 100%) | A (the corrected mortality rate is 100%) |
| CCS(=O)(=O)c1cc(-c2cccc(C(F)(F)F)c2)cnc1-c1nc2cc(C(F)(F)F)cn(CC3CC3)c-2c1F [Compound 1-84] | A (the control rate is 100%) | A (the corrected mortality rate is 100%) | A (the corrected mortality rate is 100%) |
| CCn1cc(C(F)(F)F)cc2nc(-c3nc4ccc(C(F)(F)F)cn4c3S(=O)(=O)CC)c(Cl)c1-2 [Compound 3-21] | A (the control rate is 100%) | – | – |
| CCc1ccc(-c2cnc(-c3nc4cc(C(F)(F)F)cn(CC)c-4c3Cl)c(S(=O)(=O)CC)c2)cc1 [Compound 1-77] | A (the control rate is 100%) | A (the corrected mortality rate is 100%) | A (the corrected mortality rate is 100%) |
| CCS(=O)(=O)c1c(-c2nc3cc(C(F)(F)F)cn(CC(F)(F)F)c-3c2Cl)nc2cc(C(F)(F)F)ccn12 [Compound 3-36] | A (the control rate is 100%) | – | – |
| CCS(=O)(=O)c1c(-c2nc3cc(C(F)(F)F)cn(C)c-3c2Cl)nc2ccc(C(F)(F)F)cn12 [Compound 3-5] | A (the control rate is 100%) | – | – |
| CCS(=O)(=O)c1cc(C2CC2)cnc1-c1nc2cc(C(F)(F)F)cn(COC)c-2c1Cl [Compound 1-93] | A (the control rate is 100%) | A (the corrected mortality rate is 100%) | A (the corrected mortality rate is 100%) |
| CCS(=O)(=O)c1cc(-c2cc(C(F)(F)F)ccc2F)cnc1-c1nc2cc(C(F)(F)F)cn(C)c-2c1Cl [Compound 1-57] | A (the control rate is 100%) | A (the corrected mortality rate is 100%) | A (the corrected mortality rate is 100%) |
| CCS(=O)(=O)c1cc2ccc(Br)cc2nc1-c1nc2cc(C(F)(F)F)cn(C)c-2c1Cl [Compound 2-5] | A (the control rate is 100%) | A (the corrected mortality rate is 100%) | A (the corrected mortality rate is 100%) |
| CCn1cc(C(F)(F)F)cc2nc(-c3nc4cc(C(F)(F)F)ccc4cc3S(=O)(=O)CC)c(Cl)c1-2 [Compound 2-54] | A (the control rate is 100%) | A (the corrected mortality rate is 100%) | A (the corrected mortality rate is 100%) |
| CCS(=O)(=O)c1c(-c2nc3cc(C(F)(F)F)cn(C)c-3c2Cl)nc2cc(C(F)(F)F)ccn12 [Compound 3-6] | A (the control rate is 100%) | – | – |
| CCS(=O)(=O)c1c(-c2cc3n(C)cc(C(F)(F)F)cc-3n2)nc2cc(Br)ccn12 [Compound 3-43] | A (the control rate is 100%) | – | – |
| CCn1cc(C(F)(F)F)cc2nc(-c3nc4ccc(C(F)(F)F)cn4c3S(=O)(=O)CC)c(F)c1-2 [Compound 3-29] | A (the control rate is 100%) | – | – |
| CCn1cc(C(F)(F)F)cc2nc(-c3nc4cc(Cl)ccn4c3S(=O)(=O)CC)c(Cl)c1-2 [Compound 3-18] | A (the control rate is 100%) | – | – |
| CCn1cc(C(F)(F)F)cc2nc(-c3nc4cc(C(F)(F)F)ccn4c3S(=O)(=O)CC)c(Cl)c1-2 [Compound 3-22] | A (the control rate is 100%) | – | – |
| CCn1cc(C(F)(F)F)cc2nc(-c3nc4cc(C(F)(F)F)ccn4c3S(=O)(=O)CC)c(F)c1-2 [Compound 3-30] | A (the control rate is 100%) | – | – |
| CCn1cc(C(F)(F)F)cc2nc(-c3nc4ccc(Br)cn4c3S(=O)(=O)CC)c(Cl)c1-2 [Compound 3-19] | A (the control rate is 100%) | – | – |
| CCCn1cc(C(F)(F)F)cc2nc(-c3nc4cc(C(F)(F)F)ccn4c3S(=O)(=O)CC)c(Cl)c1-2 [Compound 3-44] | A (the control rate is 100%) | – | – |
| CCn1cc(C(F)(F)F)cc2nc(-c3nc4ccc(C5CC5)cn4c3S(=O)(=O)CC)c(Cl)c1-2 [Compound 3-23] | A (the control rate is 100%) | – | – |
| CCn1cc(C(F)(F)F)cc2nc(-c3nc4cc(C(F)(F)F)ccn4c3S(=O)(=O)CC)cc1-2 [Compound 3-45] | A (the control rate is 100%) | – | – |
